The reference is the same well before dosing, and untreated signal decays as well.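 Fibroblast labels denote human fibroblasts, mainly primary ones from uterus (C12385, HUF), lung (H6013), bone (Hs27A), adrenal (HADF) and skin (WS1), plus mammary HMF and breast cancer-associated Hs343T. Cancer cells are basal-like or mesenchymal-like triple-negative breast cancer lines. A hit is a response shift exceeding 3x replicate standard deviation. The tissue of the other fibroblasts is not given here.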
System: Hs578T
Assay: relative JC-1 red fluorescence (viability) vs pre-drug, coculture with fibroblast (fraction); higher = more viable cancer cells
Description: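 JC-1 labelled TNBC cells cocultured 1:1 (1,500 cells each) with CellTrace Violet stained primary or stromal fibroblasts in 384-well plates in FluoroBrite medium, treated with one of 42 anticancer drugs at 0.1, 1, 10 or 100 uM. JC-1 red fluorescence (mitochondrial integrity in cancer cells only) was read by plate reader every 8 h for 72 h. Values are normalised to each well's pre-drug value. The stock of one drug was tenfold lower, so its dose labels may be too high.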

C[C@]12CC[C@@H]3c4ccc(O)cc4C[C@@H](CCCCCCCCC[S+]([O-])CCCC(F)(F)C(F)(F)F)[C@H]3[C@@H]1CC[C@@H]2O (stereo partly specified) [Fulvestrant]
relative JC-1 red fluorescence
Details	8 h	16 h	24 h	32 h	40 h	48 h	56 h	64 h	72 h
0.1 µM	0.922	0.837	0.79	0.768	0.707	0.668	0.64	0.599	0.579
1 µM	0.8687	0.7924	0.7623	0.728	0.67219	0.6285	0.61	0.5691	0.548
10 µM	0.904	0.864	0.819	0.793	0.761	0.731	0.728	0.688	0.671
100 µM	0.86	0.93	0.877	0.852	0.81	0.77	0.759	0.715	0.698

relative JC-1 red fluorescence
Details	8 h	16 h	24 h	32 h	40 h	48 h	56 h	64 h	72 h
0.1 µM, coculture fibroblast: C12385	0.8286	0.737	0.7195	0.623	0.561	0.535	0.511	0.506	0.506
0.1 µM, coculture fibroblast: H6013	0.9	0.84	0.789	0.767	0.734	0.71839	0.69	0.693	0.655
0.1 µM, coculture fibroblast: H6019	0.796	0.712	0.689	0.609	0.577	0.555	0.526	0.508	0.485
0.1 µM, coculture fibroblast: H6076	0.894	0.824	0.7791	0.7761	0.744	0.757	0.75	0.759	0.767
0.1 µM, coculture fibroblast: H6231	0.88	0.78	0.6984	0.6634	0.5921	0.5628	0.514	0.4918	0.47527
0.1 µM, coculture fibroblast: HADF	0.889	0.822	0.773	0.728	0.7	0.676	0.645	0.638	0.609
0.1 µM, coculture fibroblast: HCFa	0.887	0.849	0.775	0.729	0.671	0.643	0.602	0.573	0.526
0.1 µM, coculture fibroblast: HCPF	0.93	0.831	0.784	0.769	0.71	0.682	0.655	0.617	0.604
0.1 µM, coculture fibroblast: HHSteC	0.8892	0.813	0.735	0.69	0.619	0.582	0.548	0.523	0.48
0.1 µM, coculture fibroblast: HMF	0.8677	0.792	0.74	0.737	0.683	0.669	0.635	0.618	0.605
0.1 µM, coculture fibroblast: HPFa	0.93396	0.892	0.79979	0.73	0.676	0.635	0.5881	0.5603	0.504
0.1 µM, coculture fibroblast: HUF	0.8677	0.782	0.733	0.626	0.568	0.534	0.5	0.494	0.479
0.1 µM, coculture fibroblast: Hs27A	0.886	0.84	0.799	0.746	0.682	0.658	0.619	0.606	0.554
0.1 µM, coculture fibroblast: Hs343T	0.882	0.789	0.744	0.75	0.693	0.678	0.649	0.637	0.646
0.1 µM, coculture fibroblast: WS1	0.841	0.74593	0.716	0.639	0.589	0.582	0.556	0.559	0.562
1 µM, coculture fibroblast: C12385	0.799	0.721	0.681	0.618	0.569	0.541	0.516	0.507	0.497
1 µM, coculture fibroblast: H6013	0.876	0.8547	0.827	0.804	0.765	0.758	0.735	0.727	0.691
1 µM, coculture fibroblast: H6019	0.751	0.6888	0.674	0.588	0.564	0.538	0.51	0.4796	0.4545
1 µM, coculture fibroblast: H6076	0.927	0.875	0.831	0.814	0.762	0.747	0.7283	0.714	0.708
1 µM, coculture fibroblast: H6231	0.897	0.811	0.7763	0.733	0.68	0.645	0.604	0.578	0.564
1 µM, coculture fibroblast: HADF	0.907	0.86	0.822	0.788	0.765	0.747	0.715	0.721	0.684
1 µM, coculture fibroblast: HCFa	0.863	0.853	0.795	0.754	0.695	0.673	0.631	0.608	0.56
1 µM, coculture fibroblast: HCPF	0.918	0.844	0.8088	0.774	0.727	0.702	0.683	0.643	0.621
1 µM, coculture fibroblast: HHSteC	0.857	0.806	0.752	0.708	0.6603	0.629	0.602	0.579	0.535
1 µM, coculture fibroblast: HMF	0.895	0.86	0.826	0.801	0.747	0.718	0.691	0.667	0.649
1 µM, coculture fibroblast: HPFa	0.913	0.841	0.776	0.728	0.689	0.67	0.63	0.613	0.576
1 µM, coculture fibroblast: HUF	0.86	0.744	0.746	0.662	0.617	0.591	0.569	0.563	0.557
1 µM, coculture fibroblast: Hs27A	0.9024	0.894	0.88	0.863	0.842	0.842	0.819	0.836	0.784
1 µM, coculture fibroblast: Hs343T	0.864	0.775	0.7502	0.741	0.692	0.67429	0.66	0.648	0.646
1 µM, coculture fibroblast: WS1	0.824	0.739	0.715	0.637	0.592	0.584	0.562	0.556	0.559
10 µM, coculture fibroblast: C12385	0.9075	0.856	0.781	0.735	0.683	0.653	0.625	0.605	0.596
10 µM, coculture fibroblast: H6013	0.957	0.934	0.85	0.834	0.801	0.782	0.758	0.749	0.71
10 µM, coculture fibroblast: H6019	0.8744	0.824	0.754	0.682	0.639	0.612	0.583	0.56	0.538
10 µM, coculture fibroblast: H6076	0.898	0.8527	0.817	0.81207	0.7863	0.8	0.778	0.771	0.76
10 µM, coculture fibroblast: H6231	0.835	0.833	0.854	0.899	0.841	0.81	0.736	0.721	0.711
10 µM, coculture fibroblast: HADF	0.973	0.9362	0.8745	0.8431	0.808	0.78	0.753	0.74	0.7
10 µM, coculture fibroblast: HCFa	0.985	0.853	0.915	0.856	0.796	0.779	0.753	0.743	0.718
10 µM, coculture fibroblast: HCPF	0.876	0.856	0.92	0.883	0.836	0.809	0.785	0.744	0.723
10 µM, coculture fibroblast: HHSteC	0.9202	0.8628	0.7616	0.715	0.655	0.619	0.588	0.561	0.518
10 µM, coculture fibroblast: HMF	0.844	0.843	0.839	0.81	0.747	0.72092	0.684	0.659	0.642
10 µM, coculture fibroblast: HPFa	0.813	0.9377	0.88	0.847	0.81	0.784	0.751	0.736	0.695
10 µM, coculture fibroblast: HUF	0.935	0.876	0.821	0.731	0.691	0.658	0.627	0.598	0.582
10 µM, coculture fibroblast: Hs27A	0.936	0.921	0.886	0.854	0.7941	0.775	0.743	0.736	0.688
10 µM, coculture fibroblast: Hs343T	0.936	0.867	0.797	0.795	0.737	0.718	0.686	0.659	0.652
10 µM, coculture fibroblast: WS1	0.9	0.878	0.797	0.722	0.675	0.663	0.636	0.621	0.606
100 µM, coculture fibroblast: C12385	0.986	0.9531	0.954	0.915	0.868	0.859	0.855	0.86	0.86
100 µM, coculture fibroblast: H6013	0.952	0.937	0.906	0.914	0.901	0.892	0.874	0.865	0.834
100 µM, coculture fibroblast: H6019	0.881	0.832	0.824	0.759	0.737	0.721	0.692	0.666	0.6371
100 µM, coculture fibroblast: H6076	0.83	0.966	0.931	0.928	0.907	0.908	0.907	0.897	0.893
100 µM, coculture fibroblast: H6231	0.844	0.772	0.789	0.782	0.765	0.852	0.983	0.971	0.95
100 µM, coculture fibroblast: HADF	0.898	0.79	0.915	0.891	0.87	0.851	0.835	0.832	0.802
100 µM, coculture fibroblast: HCFa	0.949	0.924	0.904	0.856	0.732	0.707	0.71	0.755	0.677
100 µM, coculture fibroblast: HCPF	0.734	0.87	0.8639	0.873	0.9667	0.9545	0.9525	0.913	0.8871
100 µM, coculture fibroblast: HHSteC	0.903	0.864	0.854	0.886	0.841	0.83	0.894	0.914	0.85
100 µM, coculture fibroblast: HMF	0.81	0.86	0.827	0.806	0.95	0.837	0.967	0.954	0.8898
100 µM, coculture fibroblast: HPFa	0.98	0.943	0.896	0.871	0.847	0.834	0.811	0.804	0.768
100 µM, coculture fibroblast: HUF	0.919	0.853	0.9064	0.845	0.812	0.795	0.7679	0.764	0.759
100 µM, coculture fibroblast: Hs27A	0.9481	0.9289	0.911	0.899	0.874	0.873	0.861	0.886	0.841
100 µM, coculture fibroblast: Hs343T	0.914	0.863	0.954	0.949	0.887	0.869	0.847	0.8185	0.80316
100 µM, coculture fibroblast: WS1	0.918	0.885	0.841	0.7795	0.7403	0.7374	0.715	0.7206	0.7141
